Assay: general procedure: Boc solid-phase peptide synthesis; benzhydrylamine HCl resin, about 1 meq NH2/g (Advanced ChemTech)
Details: whole synthesis, TFA salt

Substance	crude mass (scale 0.5 mmole) [mg]	final HPLC purity (analytical HPLC) [%]	isolated mass (scale about 1 mmol) [mg]
[Ac-D-Nal(2)^1,D-Phe(4Cl)^2,D-Pal(3)^3,Arg^5,D-Lys^ 6,D-Ala^10 ]LHRH	540		
[Ac-D-Nal (2)^1,D-Phe(4Cl)^2,D-Pal(3),Arg^5,D-Lys(A2 pr)^6,D-Ala^10 ]LHRH		>95	705
